According to patent US8598223B2, “Crystalline forms of 4, 4′-[4-fluoro-7-({4-[4-(3-fluoro-2-methylphenyl) butoxy] phenyl} ethynyl)-2-methyl-1H-indole-1,3-diyl] dibutanoic acid, 4,4′-[2-methyl-7-({4-[4-(pentafluorophenyl) butoxy] phenyl} ethynyl)-1H-indole-1, 3-diyl] dibutanoic acid, and 4,4′-[4-fluoro-2-methyl-7-({4-[4-(2, 3, 4, …” (Ono Pharmaceutical Co., Ltd., priority 2010, dated 2013):
Some results were stated once for a whole list of compounds, not compound by compound.

System: LTD4-induced bronchoconstriction in guinea pigs
Assay: LTD4-induced bronchoconstriction in guinea pigs (Konzett-Rossler method)
Type: in vivo, guinea pig
Conditions: oral
Method: Guinea pigs were anesthetized by injection of pentobarbital sodium (75 mg/kg, i.p.), and a polyethylene cannula was inserted into the trachea which had been incised. For the purpose of administration of LTD4, a catheter was inserted into the jugular vein of the animal. One side of the cannula inserted into the trachea was connected with a volume-controlled respirator to perform artificial respiration at a ventilation volume of 5 mL and at a ventilation rate of 70 times/min. LTD4 was administrated intravenously to induce the bronchoconstriction, and the airway resistance was measured using the Konzett-Rossler method. The bronchoconstriction response was measured for 10 minutes after LTD4-challenge, and the ratio of bronchoconstriction response was determined and represented as a percentage of the maximal increase in insufflation pressure achieved by clamping off the trachea. In this connection, the crystalline forms of the present invention were orally administered 1, 2, 4, 8, 12, 18, 24, 36 and 48 hours prior to challenge by LTD4.

[1] = administered 2 hours prior to LTD4 challenge
[2] = administered 24 hours prior to LTD4 challenge

Compound	inhibition of bronchoconstriction (complete or not) [1]	inhibition of bronchoconstriction (complete or not) [2]
Cc1c(F)cccc1CCCCOc1ccc(/C=C/c2ccc(F)c3c(CCCC(=O)O)c(C)n(CCCC(=O)O)c23)cc1 [Comparative Example 4, 4,4′-{4-fluoro-7-[(E)-2-{4-[4-(3-fluoro-2-methylphenyl)butoxy]phenyl}vinyl]-2-methyl-1H-indole-1,3-diyl}dibutanoic acid]	complete inhibition in some cases	no complete inhibition
Cc1c(CCCC(=O)O)c2c(F)ccc(/C=C/c3ccc(OCCCCc4c(F)cc(F)c(F)c4F)cc3)c2n1CCCC(=O)O [Comparative Example 6, 4,4′-{4-fluoro-2-methyl-7-[(E)-2-{4-[4-(2,3,4,6-tetrafluorophenyl)butoxy]phenyl}vinyl]-1H-indole-1,3-diyl}dibutanoic acid]	complete inhibition in some cases	no complete inhibition
Cc1c(CCCC(=O)O)c2cccc(/C=C/c3ccc(OCCCCc4c(F)c(F)c(F)c(F)c4F)cc3)c2n1CCCC(=O)O [Comparative Example 5, 4,4′-{2-methyl-7-[(E)-2-{4-[4-(pentafluorophenyl)butoxy]phenyl}vinyl]-1H-indole-1,3-diyl}dibutanoic acid]	complete inhibition in some cases	no complete inhibition
